Results reported in PubChem BioAssay AID1117319 (Southern Research Institute, 2015).
Hit rate of the full screen: of about 260,000 compounds, about 1,500 (0.58%) were called active. The shares of active, inactive and inconclusive entries below differ from those in the screen.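 How the source made its calls: active means inhibition above a set limit at one or more doses, reproduced on every date tested; inconclusive means results disagree between test dates, or hit never tested in dose response; inactive means the rest.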

Chains of the proteins cited; added tags and fusions are not shown. Lines headed by an entry give the natural chain unless they say otherwise; changes in a name come on top.
UniProt P69720: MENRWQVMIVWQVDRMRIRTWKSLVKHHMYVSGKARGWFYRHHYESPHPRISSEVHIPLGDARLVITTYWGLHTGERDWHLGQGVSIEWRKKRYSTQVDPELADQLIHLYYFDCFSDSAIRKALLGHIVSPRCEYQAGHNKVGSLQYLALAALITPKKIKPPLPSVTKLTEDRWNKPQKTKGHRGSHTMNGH
UniProt P69721: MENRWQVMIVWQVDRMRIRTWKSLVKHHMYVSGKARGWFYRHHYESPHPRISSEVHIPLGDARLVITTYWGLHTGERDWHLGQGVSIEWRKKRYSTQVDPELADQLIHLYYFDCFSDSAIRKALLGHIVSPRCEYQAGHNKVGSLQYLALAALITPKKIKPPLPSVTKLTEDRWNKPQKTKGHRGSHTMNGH
UniProt P69722: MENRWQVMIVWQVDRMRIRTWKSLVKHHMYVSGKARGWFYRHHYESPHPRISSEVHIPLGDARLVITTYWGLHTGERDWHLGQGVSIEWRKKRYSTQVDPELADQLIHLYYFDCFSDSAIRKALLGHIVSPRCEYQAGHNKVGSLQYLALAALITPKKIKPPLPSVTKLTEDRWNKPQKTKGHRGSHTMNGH
UniProt P69723: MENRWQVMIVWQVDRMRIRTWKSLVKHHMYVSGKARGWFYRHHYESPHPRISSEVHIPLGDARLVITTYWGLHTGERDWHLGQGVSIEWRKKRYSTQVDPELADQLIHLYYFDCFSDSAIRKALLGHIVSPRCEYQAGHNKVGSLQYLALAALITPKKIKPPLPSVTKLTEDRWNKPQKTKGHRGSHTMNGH
UniProt Q9HC16: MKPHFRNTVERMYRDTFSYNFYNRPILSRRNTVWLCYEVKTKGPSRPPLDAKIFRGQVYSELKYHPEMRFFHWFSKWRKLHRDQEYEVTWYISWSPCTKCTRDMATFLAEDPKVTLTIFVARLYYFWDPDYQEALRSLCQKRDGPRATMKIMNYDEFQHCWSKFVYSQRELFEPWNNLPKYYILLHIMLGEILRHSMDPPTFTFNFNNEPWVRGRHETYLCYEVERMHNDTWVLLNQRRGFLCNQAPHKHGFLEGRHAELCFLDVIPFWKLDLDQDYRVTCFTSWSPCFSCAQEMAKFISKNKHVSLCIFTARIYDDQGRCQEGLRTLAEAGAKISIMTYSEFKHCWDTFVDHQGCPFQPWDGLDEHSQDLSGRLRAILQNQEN

Biological target: Virion infectivity factor (Human immunodeficiency virus type 1 group M subtype B (isolate BH10)) + Virion infectivity factor (Human immunodeficiency virus type 1 group M subtype B (isolate BRU/LAI)) + Virion infectivity factor (Human immunodeficiency virus type 1 group M subtype B (isolate PCV12)) + Virion infectivity factor (Human immunodeficiency virus type 1 group M subtype B (isolate HXB2)) + DNA dC->dU-editing enzyme APOBEC-3G (Homo sapiens) (UniProt P69720+P69721+P69722+P69723+Q9HC16)
Assay: inhibitors of Vif binding to APOBEC3G peptide, primary screen, biochemical, TR-FRET, GST-Vif 1-94, biotin-A3G peptide, dose response retest (AID 1117319);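 further: Vif residues 1-94 fused to GST binding biotinylated APOBEC3G peptide 110-148; 0% = full assay without inhibitor and 100% = GST in place of GST-Vif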
Conditions: stronger effect = higher value

Question: For `NC(=O)CC[C@@H]1NC(=O)[C@H](CO)NC(=O)c2cc([N+](=O)[O-])cc(I)c2NCCC[C@@H](C(N)=O)NC(=O)[C@H](Cc2ccc(O)cc2)NC1=O`, which inhibition is on record?
Answer: inconclusive: 36%

Question: How did the inhibition turn out when `CC1=NN(c2ccccc2)C(=O)/C1=C/c1c(O)[nH]c(=O)[nH]c1=O` was run?
Answer: inconclusive: 59.4%

Question: For `Cc1cc(C)cc(-n2c(C)cc(/C=C3\C(=O)NC(=O)N(C)C3=O)c2C)c1`, which inhibition is on record?
Answer: inconclusive: 42.4%

Question: With `COc1ccc(C(CC(=O)N2CCC3(CC2)OCCO3)NS(=O)(=O)c2ccc(C)cc2)cc1` (configuration not stated) as the compound, how does the inhibition read?
Answer: inconclusive: 44.6%

Question: How did the inhibition turn out when `O=C1NS(=O)c2cc([N+](=O)[O-])cc([N+](=O)[O-])c21` (configuration not stated) was run?
Answer: inconclusive: 46.4%

Question: With `Nc1ncc(P(=S)(N2CCOCC2)N2CCOCC2)s1` as the compound, how does the inhibition read?
Answer: inconclusive: 8.28%

Question: Which inhibition does the source give for `O=c1[nH]c(=O)n(-c2cccc3ccccc23)c(O)c1C=NCCCn1ccnc1` here?
Answer: inconclusive: 49.2%

Question: For `CCOc1ccccc1CN1C2CCC1CC(c1ccc(C)cc1)C2` (configuration not stated), which inhibition is on record?
Answer: inconclusive: 58.3%

Question: How did the inhibition turn out when `Cc1ccc(N2C(=O)NC(=O)/C(=C\c3ccoc3)C2=O)cc1` was run?
Answer: inconclusive: 54.5%

Question: With `Cc1cc(NC(=O)CCl)on1` as the compound, how does the inhibition read?
Answer: inconclusive: 51.8%

Question: Which inhibition does the source give for `CCC(=NCc1ccco1)c1c(O)n(-c2ccccc2)c(=O)[nH]c1=O` here?
Answer: inconclusive: 33%

Question: `CCOC(=O)c1c(/N=C/C2C(=O)NC(=S)NC2=O)sc2c1CCC2` was tested. Which inhibition did it give?
Answer: inconclusive: 34.7%

Question: `COc1ccc(/C=C2/C(=O)N(Cc3ccco3)C(=O)N(C(C)C)C2=O)cc1` was tested. Which inhibition did it give?
Answer: inconclusive: 58.7%

Question: For `CNC(=O)Oc1ccc(-c2cn3cc(C)ccc3n2)cc1`, which inhibition is on record?
Answer: inconclusive: 50.1%

Question: `O=C(N/N=C/C1C(=O)NC(=S)N(c2ccccc2)C1=O)c1cc(Br)c(O)c(Br)c1` (configuration not stated) was tested. Which inhibition did it give?
Answer: inconclusive: 34%

Question: With `N#CC1=C(N)Oc2c(c(=O)oc3ccccc23)C1c1ccc([N+](=O)[O-])o1` (configuration not stated) as the compound, how does the inhibition read?
Answer: inconclusive: 35.5%

Question: With `CCC(C)n1c(O)c(C=NC(C)c2ccccc2)c(=O)[nH]c1=S` (configuration not stated) as the compound, how does the inhibition read?
Answer: inconclusive: 38.6%

Question: `CN(C)CCCN=Cc1c(O)n(Cc2ccco2)c(=O)[nH]c1=O` was tested. Which inhibition did it give?
Answer: inconclusive: 39%

Question: How did the inhibition turn out when `O=C(O)[C@H]1C[C@@H]1[C@H](NP(=O)(c1ccccc1)c1ccccc1)c1ccccc1` was run?
Answer: inconclusive: 50.6%

Question: `C=Cn1c(P(=S)(N2CCOCC2)N2CCOCC2)cc2c1CCCC2` was tested. Which inhibition did it give?
Answer: inconclusive: 60.8%

Question: How did the inhibition turn out when `COc1ccc(C(=O)C2CCCN(Cc3cccc(C)n3)C2)c(OC)c1` (configuration not stated) was run?
Answer: inconclusive: 63.5%

Question: Which inhibition does the source give for `C=CCN(CC=C)Cc1c[nH]c2ccccc12` here?
Answer: inconclusive: 19.1%

Question: Which inhibition does the source give for `CCN(CCO)c1ccc(N=Cc2c(O)n(C)c(=S)[nH]c2=O)cc1` here?
Answer: inconclusive: 48.5%

Question: How did the inhibition turn out when `O=C(CN1CCOCC1)c1ccc2cc[nH]c2c1` was run?
Answer: inconclusive: 41.2%

Question: Which inhibition does the source give for `O=C1NC(=O)N(Cc2ccc(F)cc2)C(=O)/C1=C\c1ccc([N+](=O)[O-])s1` here?
Answer: inconclusive: 44%

Question: How did the inhibition turn out when `C=CCOC(=O)C1=C(C)OC(N)=C(C#N)[C@@]12C(=O)N(CC(N)=O)c1ccccc12` was run?
Answer: inconclusive: 29.9%

Question: `CCCCn1c(O)c(C(C)=NCc2ccco2)c(=O)[nH]c1=O` was tested. Which inhibition did it give?
Answer: inconclusive: 42.3%

Question: Which inhibition does the source give for `Cc1cc(C=C2C(=O)N(C)C(=S)N(C)C2=O)c(C)n1C1CCCCC1` here?
Answer: inconclusive: 60.7%

Question: How did the inhibition turn out when `CC(C)(C)NCC(O)c1cc(Cl)c(N)c(Cl)c1` (configuration not stated) was run?
Answer: inconclusive: 38.5%

Question: `COc1ccc(C(O)P(=O)(OC(C)C)OC(C)C)cc1` (configuration not stated) was tested. Which inhibition did it give?
Answer: inconclusive: 34.5%

Question: Which inhibition does the source give for `O=C(c1cccn2c(=O)c3ccc(Cl)cc3nc12)N1CCC2(CC1)OCCO2` here?
Answer: inconclusive: 43.6%

Question: Which inhibition does the source give for `O=c1[nH]c(=S)n(CCC2=CCCCC2)c(O)c1C=NCCCn1ccnc1` here?
Answer: inconclusive: 36.8%

Question: `Fc1ccc(Cn2nnnc2CN2CCC(n3nnc4cc(C(F)(F)F)ccc43)CC2)cc1` was tested. Which inhibition did it give?
Answer: inconclusive: 58.8%

Question: How did the inhibition turn out when `COC(=O)N(c1ccc(OC)cc1)P1(=S)OCCC(C)O1` (configuration not stated) was run?
Answer: inconclusive: 41.6%

Question: For `O=C(C1c2ccccc2C(=O)N2CCc3ccccc3C12)N1CCC2(CC1)OCCO2` (configuration not stated), which inhibition is on record?
Answer: inconclusive: 61.1%

Question: For `O=[As](O)(O)c1ccc(N=Nc2ccc(O)cc2)cc1`, which inhibition is on record?
Answer: inconclusive: 42.8%

Question: How did the inhibition turn out when `Oc1ccc(CC2CC3CCN2CC3)cc1O` (configuration not stated) was run?
Answer: inconclusive: 62.2%

Question: `COCCCn1c(N)c(C(=O)NCc2ccco2)c2nc3ccccc3nc21` was tested. Which inhibition did it give?
Answer: inconclusive: 34.1%

Question: For `C[C@H]1CC[C@@H]2[C@@H](C)[C@H]3[C@H](C[C@H]4[C@@H]5CC=C6C[C@@H](O[C@@H]7O[C@H](CO)[C@H](O)[C@H](O[C@@H]8O[C@H](CO)[C@@H](O)[C@H](O)[C@H]8O)[C@H]7O[C@@H]7O[C@@H](C)[C@H](O)[C@@H](O)[C@H]7O)CC[C@]6(C)[C@H]5CC[C@]34C)N2C1`, which inhibition is on record?
Answer: inconclusive: 48.7%

Question: With `COc1ccc(N2C(=O)NC(=O)/C(=C/c3ccc([N+](=O)[O-])s3)C2=O)cc1` as the compound, how does the inhibition read?
Answer: inconclusive: 58.5%

Question: Which inhibition does the source give for `O=C(CCn1c(=O)oc2ccccc21)N1CCC2(CC1)OCCO2` here?
Answer: inconclusive: 19.9%

Question: With `COc1ccc(N2C(=O)/C(=C/c3ccc(C)o3)C(=O)NC2=S)cc1` as the compound, how does the inhibition read?
Answer: inconclusive: 33.3%
